Laboratory results as given in patent US20240398804A1.
These are yes or no findings as the source states them, for the method shown. Some results given as binding are weak or reduced against the parent protein; the word gives no strength.

The chains behind the UniProt entries cited, without tags or fusion partners. Residues count along the entry.
UniProt P07947, residues 2-543: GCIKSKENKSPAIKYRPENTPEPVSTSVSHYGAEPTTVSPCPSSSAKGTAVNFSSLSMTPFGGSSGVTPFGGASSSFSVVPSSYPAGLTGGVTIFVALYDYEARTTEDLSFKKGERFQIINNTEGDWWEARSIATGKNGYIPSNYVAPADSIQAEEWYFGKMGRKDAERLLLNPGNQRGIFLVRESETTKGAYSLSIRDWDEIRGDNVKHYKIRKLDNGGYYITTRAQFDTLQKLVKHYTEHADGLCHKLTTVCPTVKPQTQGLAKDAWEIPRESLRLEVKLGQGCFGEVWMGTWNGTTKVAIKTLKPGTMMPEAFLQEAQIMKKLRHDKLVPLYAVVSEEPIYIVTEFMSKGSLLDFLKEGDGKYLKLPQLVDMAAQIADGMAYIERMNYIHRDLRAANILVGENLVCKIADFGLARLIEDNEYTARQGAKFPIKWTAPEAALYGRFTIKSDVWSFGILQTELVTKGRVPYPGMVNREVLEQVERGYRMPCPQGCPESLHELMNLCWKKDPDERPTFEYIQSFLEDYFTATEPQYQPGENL

Target: YAP1 (65 kd Yes-associated protein) (UniProt P46937)
Assay: YAP1 immunoprecipitation from SW480 lysate, immunoblot

YES1 (Yamaguchi sarcoma viral oncogene homolog 1) (from UniProt P07947 2-543) (enzyme)
binding: binds
